The campaign covered roughly 330,000 compounds. About 7,700 (2.3%) were called active. The shares of active, inactive and inconclusive entries below differ from those in the screen. The call rests on the fitted dose curve; in most records, active means well fitted inhibition curve with a large enough effect; inconclusive means small, poorly fitted or top-dose-only effect, or effect the other way; inactive means flat fitted curve, though single readings scatter. A potency beside an inconclusive call is a rough fit, not a confirmed value.
Experiment: qHTS screen for small molecules that inhibit ELG1-dependent DNA repair in human embryonic kidney (HEK293T) cells expressing luciferase-tagged ELG1; further: nearly all actives have a fitted effect of over 55% in size
Details: HEK293T ELG1-luciferase reporter, luminescence, 16 h, DNA damage induced by 5-fluorouridine; series mostly up to 46.1 µM
Outline: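 Step one: seed 2,000 cells per well. Step two: pin-transfer compound or DMSO alongside 5-fluorouridine. Step three: incubate 16 hr, 37 °C, 5% CO2. Step four: add ONE-Glo, wait 30 min, read luminescence.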
Potency means the concentration at half of the fitted maximal effect.

SMILES	Potency
CCOc1ccccc1Nc1nnc(SCC(=O)Nc2cccc(S(=O)(=O)NC3=NCCCCC3)c2)s1	active: 18.4 µM
Cc1ccc(SCCc2cc[n+](CC(=O)c3ccccc3)cc2)cc1	inconclusive: 18.3 µM [activator, single point]
N#Cc1ccc(CSc2nnc(COc3ccccc3)n2-c2ccccc2)cc1	inconclusive: 32.6 µM [inhibitor, partial curve, poor fit]
Cc1cc(NC(=O)C(C)SCC(=O)OCC(=O)N(Cc2ccccc2)C(C)(C)C)no1 (configuration not stated)	inactive
CC[n+]1c(C=C2C=C(C)OC(C)=C2)sc2ccccc21	inconclusive: 8.2 µM [inhibitor, partial curve, poor fit]
CCOc1ccc(NC(=O)CCC(=O)N2CCSc3ccccc32)cc1	inconclusive: 32.6 µM [inhibitor, partial curve, poor fit]
CCCC(=O)n1nc(-c2cccnc2)nc1NCc1ccccc1	inactive
CCC(C)N(C(=O)CN1C(=O)NC2(CCc3ccccc32)C1=O)C1CCS(=O)(=O)C1 (configuration not stated)	inconclusive: 14.6 µM [activator, partial curve, poor fit]
[O-][n+]1c2ccccc2c2n1CCN1CCOC21c1ccc(Cl)cc1 (configuration not stated)	inconclusive: 18.3 µM [activator, partial curve, poor fit]
COc1c(C)cc(S(=O)(=O)NCCN2CCOCC2)c(C)c1C	inactive
CCOC(=O)c1ccc(NC(=O)c2nc[nH]c2C(=O)N[C@@H](CCCCNC(=O)OC(C)(C)C)C(=O)OC(C)(C)C)cc1	inconclusive: 29.1 µM [inhibitor, single point]
Cc1cc(OCC(=O)Nc2cccnc2)c2c(C)c(C)c(=O)oc2c1	inconclusive: 7.3 µM [activator, partial curve, poor fit]
CCN(CC)S(=O)(=O)c1ccc(Oc2cccc(C(C)=O)c2)nc1	inconclusive: 32.6 µM [inhibitor, single point]
O=C(CN1C(=O)COc2ccccc21)Nc1ccc2c(c1)OCCO2	inactive
COc1ccc(NC(=O)C2CCC(CNc3c(N4CCOCC4)c(=O)c3=O)CC2)cc1Cl (configuration not stated)	inconclusive: 9.2 µM [inhibitor, partial curve, poor fit]
COc1cc(Cl)ccc1OCc1cc(C(=O)N2C[C@H]3CC[C@H]2C3)no1	inconclusive: 13 µM [activator, partial curve]
C=CCNc1nc2c(c(=O)n(C)c(=O)n2C)n1CCCCCC	inactive
Nc1nnc(SCCOc2ccccc2)s1	inconclusive: 25.9 µM [activator, single point]
CCOc1ccc2nc(NC(=O)C3CCN(S(=O)(=O)c4cnc[nH]4)CC3)sc2c1	inconclusive: 23.1 µM [inhibitor, partial curve, poor fit]
O=C(Nc1ccc2c(c1)OCCO2)c1ccc(Cl)cc1Cl	inconclusive: 0.794 µM [activator, full curve, poor fit]
COc1ccc(C2Nc3ccccc3C(=O)N2Cc2ccco2)cc1COc1ccc([N+](=O)[O-])cc1 (configuration not stated)	inconclusive: 3.26 µM [inhibitor, partial curve, poor fit]
CCOC(=O)N1CCN(S(=O)(=O)N2CCCC(C(=O)NCc3ccc(OC)cc3OC)C2)CC1 (configuration not stated)	inconclusive: 18.3 µM [inhibitor, single point]
COc1ccc(Nc2nc(NN)nc(C)c2[N+](=O)[O-])cc1	inconclusive: 29.1 µM [inhibitor, single point]

SMILES	Potency
COCCNC(=O)NC(=O)CSc1nc(C)c(C)c(C)n1	inactive
COc1cccc(Sc2nc(-c3ccccc3)ncc2S(C)(=O)=O)c1	inconclusive: 25.9 µM [activator, single point]
CCN(C(=O)COc1ccc(C(C)=O)cc1)c1cccc2ccccc12	inconclusive: 4.11 µM [inhibitor, partial curve, poor fit]
O=C(/C=C\Nc1ccc(Br)cc1)c1cccnc1	inconclusive: 6.51 µM [activator, partial curve]
Cn1ncc(Oc2ccc([N+](=O)[O-])cc2)c(Cl)c1=O	inconclusive: 10.3 µM [activator, partial curve, poor fit]
O=C(Cn1nc(Cc2cccnc2)c2ccccc2c1=O)NCC1COc2ccccc2O1 (configuration not stated)	inconclusive: 11.6 µM [inhibitor, partial curve, poor fit]
CN(C)C(=S)Nc1nc2ccccc2s1	inconclusive: 9.2 µM [activator, partial curve]
CC(=O)c1cccc(NC(=O)CN(C)S(=O)(=O)c2ccc3c(c2)CC(C)N3C(C)=O)c1 (configuration not stated)	inactive
Cc1ccc(CSc2nnc(C)c(=O)[nH]2)cc1	inconclusive: 29.1 µM [activator, single point]
Cc1cc(C)nc(Nc2nc3ccccc3[nH]2)n1	inconclusive: 2.59 µM [activator, full curve]
O=C(c1cccc(S(=O)(=O)N2CCc3ccccc3C2)c1)N1CCN(c2ccc(O)cc2)CC1	inconclusive: 23.1 µM [inhibitor, partial curve, poor fit]
CC(C)Cn1c(C(C)C)nc([N+](=O)[O-])c1S(=O)(=O)c1ccc(F)cc1	inconclusive: 29.1 µM [inhibitor, single point]
COc1ccc(C(=O)NC(=S)Nc2cccc(NC(=O)c3ccco3)c2)cc1[N+](=O)[O-]	inconclusive: 4.11 µM [inhibitor, partial curve]
O=C(Nc1nc(-c2ccc3c(c2)Cc2ccccc2-3)cs1)c1ccccc1	inactive
CN(c1ccc([N+](=O)[O-])cc1/C=N/NC(=O)COc1ccccc1)C1CCCCC1	inactive
COc1ccc(C2=NN(C(=O)COC(=O)c3ccc(S(C)(=O)=O)c([N+](=O)[O-])c3)C(c3ccco3)C2)cc1 (configuration not stated)	inconclusive: 29.1 µM [inhibitor, single point]
Cc1cc(NC(=O)COC(=O)c2c(C)nn(-c3ccccc3)c2C)no1	inconclusive: 18.4 µM [inhibitor, single point]
CC(C)(C)c1ccc(C(=O)NNC(=S)NC(=O)c2cccnc2)cc1	inconclusive: 6.51 µM [inhibitor, full curve]
O=C(CC1C(=O)NCCN1Cc1cccc(Oc2ccccc2)c1)NCCc1ccncc1 (configuration not stated)	inactive
COCCn1c(SCC(=O)Nc2nc(C)c(Cl)cc2Cl)nc2ccccc21	inactive
O=C(Nc1ccc(F)cc1)c1cc(Cl)sc1Cl	inconclusive: 14.6 µM [activator, partial curve]
Cn1ccnc1SCC(=O)Nc1cccc2ccccc12	inconclusive: 18.4 µM [activator, single point]
CCN1C(=O)[C@@H]2Cc3c([nH]c4ccccc34)C(c3ccc(OC)cc3)N2C1=S (some centres not stated)	inconclusive: 1.3 µM [inhibitor, single point]

Four entries from above, reformatted.
SMILES,Potency
O=C(CC1C(=O)NCCN1Cc1cccc(Oc2ccccc2)c1)NCCc1ccncc1 (configuration not stated),inactive
COCCn1c(SCC(=O)Nc2nc(C)c(Cl)cc2Cl)nc2ccccc21,inactive
O=C(Nc1ccc(F)cc1)c1cc(Cl)sc1Cl,"inconclusive: 14.6 µM [activator, partial curve]"
Cn1ccnc1SCC(=O)Nc1cccc2ccccc12,"inconclusive: 18.4 µM [activator, single point]"

3 structures already listed, ordered by formula weight, high to low:
SMILES	Potency
Cc1cc(NC(=O)C(C)SCC(=O)OCC(=O)N(Cc2ccccc2)C(C)(C)C)no1 (configuration not stated)	inactive
CCOc1ccc2nc(NC(=O)C3CCN(S(=O)(=O)c4cnc[nH]4)CC3)sc2c1	inconclusive: 23.1 µM [inhibitor, partial curve, poor fit]
COc1cccc(Sc2nc(-c3ccccc3)ncc2S(C)(=O)=O)c1	inconclusive: 25.9 µM [activator, single point]

Next compounds.

SMILES	Potency
O=C(Cc1ncn[nH]1)NCCc1ccccc1	inconclusive: 10.3 µM [activator, partial curve, poor fit]
CCOc1ccc(-c2cc(C(=O)N/N=C(\C)c3cccnc3)c3ccccc3n2)cc1	inactive
CCc1cc2c(C)ccc(C)c2nc1SCC(=O)Nc1cc(C)on1	inactive
Cn1c(CNc2cccc(Cl)c2)nnc1SCC#N	inactive
O=C(CSc1ncn(-c2ccccc2)n1)c1cccs1	inconclusive: 6.51 µM [activator, partial curve]
Cc1cc(C)c2c(=O)n(CC(=O)Nc3cccc(Cl)c3C)sc2n1	inconclusive: 4.11 µM [inhibitor, single point]
O=c1cc(CO)[nH]cc1OCc1ccccc1	inactive
CNc1ccccc1C(=O)OC(C)C(=O)Nc1ccc(S(=O)(=O)N2CCCC2)cc1 (configuration not stated)	inconclusive: 20.6 µM [inhibitor, partial curve, poor fit]
O=C(CN1CCN(CC(=O)Nc2ccccc2Cc2ccccc2)CC1)Nc1ccccc1Cl	active: 25.9 µM
CCOc1ccccc1N(CC(=O)NC1CCCC1)S(=O)(=O)c1ccc(C)cc1	inconclusive: 29.1 µM [inhibitor, single point]
CCNS(=O)(=O)c1ccc(CCC(=O)N2CCN(c3ccc(OC)cc3)CC2)cc1	inactive
CCc1ccc(NC(=O)CSc2nc3ccccc3nc2N2CCCC2)cc1	inconclusive: 29.1 µM [activator, single point]
Nc1c(S(=O)(=O)c2cc(Cl)ccc2Cl)c2nc3ccccc3nc2n1CCN1CCOCC1	inconclusive: 29.1 µM [inhibitor, single point]
CC(=O)N1N=C(c2ccco2)CC1c1cc2ccc(C)cc2nc1Cl (configuration not stated)	inconclusive: 0.651 µM [inhibitor, single point]
COC(=O)[C@@]12CCCCN1[C@H](c1ccc(-c3ccc(F)cc3)c(OC)c1)[C@H]1C(=O)N(C)C(=O)[C@H]12	active: 13 µM
O=C(Nc1nc2ccccc2s1)c1ccc(Cl)s1	inconclusive: 1.46 µM [activator, full curve]
O=C(c1cc(-c2cccc(O)c2)on1)N1CCCCCC1	inconclusive: 13 µM [activator, partial curve]
Cc1ccc(CN(Cc2ccccc2)C(=S)Nc2ccccc2C)o1	inactive
COc1ccc2nc(NC(=O)C3COc4ccccc4O3)sc2c1 (configuration not stated)	inconclusive: 2.91 µM [activator, full curve]
Cc1ccc(S(=O)(=O)N/N=C\c2ccc(Cl)c([N+](=O)[O-])c2)cc1	inactive
Cc1n(CC(=O)c2ccc(F)cc2)c2ccccc2[n+]1C	inactive

Source: PubChem BioAssay AID504467 (National Center for Advancing Translational Sciences (NCATS), 2011)
